For test [1], the system named is S. aureus (ATCC 43300) MRSA. Briefly: microbe, parasite or virus in culture. It is filed as cell-based. The note with it: Staphylococcus aureus, read-out: Minimum inhibitory concentration.
Test [2] deals with S. aureus (ATCC 33591) MRSA. Briefly: microbe, parasite or virus in culture. It is filed as cell-based. The settings on record: Staphylococcus aureus, read-out: Minimum inhibitory concentration.

Converted amounts (≈) assume the structure as drawn.

For the molecule `CN[C@H](CC(C)C)C(=O)N[C@H]1C(=O)N[C@@H](CC(N)=O)C(=O)N[C@H]2C(=O)N[C@H]3C(=O)N[C@H](C(=O)N[C@H](C(=O)O)c4cc(O)cc(O)c4-c4cc3ccc4O)[C@H](O)c3ccc(c(Cl)c3)Oc3cc2cc(c3O[C@@H]2O[C@H](CO)[C@@H](O)[C@H](O)[C@H]2O[C@H]2C[C@](C)(N)[C@H](O)[C@H](C)O2)Oc2ccc(cc2Cl)[C@H]1O` [Vancomycin, reference compound], the MIC in test [1] and in test [2] was 2 µg/mL (≈ 1.38 µM) each time.

For the origin of these results see US20210230203A1, “Amphiphilic Kanamycin Compositions and Methods” (priority 2020, published 2021).
